# Source: PubChem BioAssay AID652259 (Drosophila RNAi Screening Center, 2013)
# Screen: 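Genome-wide hunt for genes that control Wingless pathway activity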 (primary screen)
# Cell system: Drosophila clone 8 imaginal disc epithelial cells
# Reagents: long dsRNA against Drosophila genes
# Conditions: pathway stimulated by co-transfected Wingless expression plasmid
# Read-out: 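Firefly luciferase from a tcf-site Wingless reporter, measured alongside co-transfected Renilla luciferase that tracks transfection; pathway stimulated by a Wingless plasmid; the firefly-to-Renilla ratio is not deposited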
# Scale: firefly reporter light: higher = more Wg reporter light, before normalisation; Renilla control light: higher = more transfected or surviving cells
# Call rule: 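a knock-down is a candidate when at least two out of four statistical tests show it departing from its plate mean; one test alone signals a weak candidate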
# Meaning of the calls: active = candidate regulator (raises or lowers reporter); inactive = not a candidate
# The deposit covers about 22,000 reagents; this is an unselected part of those that have a named target and a result. Over the whole deposit, 233 (1.1%) were called active. 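Light values are raw, unnormalised plate reads; the ratio scores behind the reporter calls were not deposited.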 A number with no mark means an inactive call. Reagents against one gene are numbered here. No sequences are given here. Not stated in the record: the amount of reagent, the time to read-out, the dose of the treatment.
The first 2 entries, to show the layout:
target,dsRNA no.,"firefly reporter light, replicate 1","firefly reporter light, replicate 2","Renilla control light, replicate 1","Renilla control light, replicate 2"
CG6398 (GeneID 32761),1,2064,7900,1024,3128
CG6325 (GeneID 41268),1,6437,,1853,

The list itself, repeating the preview:
target,dsRNA no.,"firefly reporter light, replicate 1","firefly reporter light, replicate 2","Renilla control light, replicate 1","Renilla control light, replicate 2"
CG6398 (GeneID 32761),1,2064,7900,1024,3128
CG6325 (GeneID 41268),1,6437,,1853,
CG15638 (GeneID 34768),1,2235,8388,981,2784
Men (GeneID 47173),1,4018,,1149,
Men (GeneID 47173),2,20208,,7514,
Men (GeneID 47173),3,1.14e6,7.26e5,4.33e5,3.42e5
TRAM (GeneID 31042),1,18311,,16940,
TRAM (GeneID 31042),2,14137,,11909,
Rpp30 (GeneID 44392),1,12807,,5520,
CG13872 (GeneID 37273),1,6408,,2362,
TotM (GeneID 33764),1,3441,7259,1484,2649
CG15333 (GeneID 31720),1,13608,,7072,
CG15333 (GeneID 31720),2,17484,,7565,
CG8249 (GeneID 36742),1,4914,,2105,
Vha100-3 (GeneID 246543),1,14208,,11324,
CG30075 (GeneID 246437),1,17892,,14912,
CG9717 (GeneID 43636),1,7078,,2676,
CG10597 (GeneID 32714),1,24496,,7782,
RpLP0 (GeneID 40451),1,35840,,5105,
RpLP0 (GeneID 40451),2,5.45e5,6.56e5,1.83e5,1.95e5
Obp56e (GeneID 37267),1,4256,,2042,
LysP (GeneID 38129),1,3908,,1706,
CG13045 (GeneID 39792),1,8390,,2290,
mei-41 (GeneID 32608),1,9272,,4877,
CG7378 (GeneID 32888),1,12440,,7168,
DCTN2-p50 (GeneID 44086),1,14289,,2781,
Hmr (GeneID 31988),1,16165,,7201,
bam (GeneID 43038),1,18626,,16180,
Inos (GeneID 35671),1,2224,7606,466,2077
Hsc70-3 (GeneID 32133),1,17776,,4528,
Dd (GeneID 33107),1,3010,6442,1285,3813
Gale (GeneID 38076),1,15702,,5259,
CG8219 (GeneID 38722),1,1696,7986,1248,3088
Cp38 (GeneID 31788),1,23094,,11618,
CG17930 (GeneID 41979),1,1927,5705,1040,1627
CG4707 (GeneID 37935),1,7782,,2800,
Mco1 (GeneID 34258),1,4033,8391,1206,4269
BomBc3 (GeneID 50055),1,34834,,8957,
Vha68-3 (GeneID 34695),1,2784,9648,1008,4172
CRAT (GeneID 40787),1,15473,,4810,
CG8993 (GeneID 38301),1,3248,,2192,
CG31960 (GeneID 319047),1,2119,8784,761,2760
CG9948 (GeneID 38757),1,5232,,2760,
Rad17 (GeneID 41779),1,8803,,1954,
CG32024 (GeneID 317828),1,4.84e5,4.77e5,1.82e5,2.03e5
CG9452 (GeneID 40119),1,11577,,2720,
CG4781 (GeneID 37943),1,2058,6682,658,1346
Ten-a (GeneID 32183),1,3921,,1202,
Ten-a (GeneID 32183),2,20208,,3557,
Ten-a (GeneID 32183),3,19048,,10114,
Ten-a (GeneID 32183),4,24322,,12518,
Ten-a (GeneID 32183),5,14416,,9089,
Ten-a (GeneID 32183),6,15213,,8954,
Ten-a (GeneID 32183),7,22753,,10979,
Ten-a (GeneID 32183),8,6.59e5,7.22e5,2.74e5,1.89e5
